This is one part of the list.
Key:
Assay in all cases: log2 fold change, soluble protein after heating vs DMSO (PISA); higher = thermal stabilisation; K562 lysate, 10 uM; active = over 0.2 and 3.5 SD of the protein, either way, in both replicates (recomputed)
alvocidib = compound: CN1CC[C@H](c2c(O)cc(O)c3c(=O)cc(-c4ccccc4Cl)oc23)[C@H](O)C1 [alvocidib]
Summary of the method: (§1)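 Following dounce homogenisation of K562 pellets in PBS pH 7.4 with 1 mM MgCl2, crude extract at 1 mg/mL protein was incubated for 30 min with 10 μM compound. Aliquots were then heated for 3 min over 48°C-58°C and pooled, NP-40 was added to 0.5% at 4°C, and soluble protein was recovered as the supernatant at 21,000xg for 90 min. Channel-sum-equalised TMTpro 16plex LC-MS/MS quantified this protein. Each value, from duplicates, is a log-two fold change in thermal stability relative to solvent controls.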

By UniProt entry, the sequences of proteins in these tests, tags left out. Where a name states a change or a piece, a line headed by the entry shows the natural chain unless it says otherwise.
UniProt Q14232, whole entry, looked up: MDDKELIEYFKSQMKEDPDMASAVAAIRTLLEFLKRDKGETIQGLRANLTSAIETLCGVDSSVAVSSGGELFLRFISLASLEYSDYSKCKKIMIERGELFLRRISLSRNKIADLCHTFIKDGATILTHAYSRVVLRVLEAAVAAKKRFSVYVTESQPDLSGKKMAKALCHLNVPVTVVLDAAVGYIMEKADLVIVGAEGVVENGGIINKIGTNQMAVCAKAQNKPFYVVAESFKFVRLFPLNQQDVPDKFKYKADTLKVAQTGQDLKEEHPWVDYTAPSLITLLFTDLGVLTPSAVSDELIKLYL
UniProt O60573: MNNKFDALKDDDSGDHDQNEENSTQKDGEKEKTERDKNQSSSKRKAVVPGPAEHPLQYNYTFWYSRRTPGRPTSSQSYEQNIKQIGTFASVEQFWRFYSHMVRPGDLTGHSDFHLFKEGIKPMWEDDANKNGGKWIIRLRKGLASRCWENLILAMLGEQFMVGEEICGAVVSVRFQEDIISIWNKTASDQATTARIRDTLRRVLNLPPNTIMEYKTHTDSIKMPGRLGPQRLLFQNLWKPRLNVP
UniProt Q9NZ08: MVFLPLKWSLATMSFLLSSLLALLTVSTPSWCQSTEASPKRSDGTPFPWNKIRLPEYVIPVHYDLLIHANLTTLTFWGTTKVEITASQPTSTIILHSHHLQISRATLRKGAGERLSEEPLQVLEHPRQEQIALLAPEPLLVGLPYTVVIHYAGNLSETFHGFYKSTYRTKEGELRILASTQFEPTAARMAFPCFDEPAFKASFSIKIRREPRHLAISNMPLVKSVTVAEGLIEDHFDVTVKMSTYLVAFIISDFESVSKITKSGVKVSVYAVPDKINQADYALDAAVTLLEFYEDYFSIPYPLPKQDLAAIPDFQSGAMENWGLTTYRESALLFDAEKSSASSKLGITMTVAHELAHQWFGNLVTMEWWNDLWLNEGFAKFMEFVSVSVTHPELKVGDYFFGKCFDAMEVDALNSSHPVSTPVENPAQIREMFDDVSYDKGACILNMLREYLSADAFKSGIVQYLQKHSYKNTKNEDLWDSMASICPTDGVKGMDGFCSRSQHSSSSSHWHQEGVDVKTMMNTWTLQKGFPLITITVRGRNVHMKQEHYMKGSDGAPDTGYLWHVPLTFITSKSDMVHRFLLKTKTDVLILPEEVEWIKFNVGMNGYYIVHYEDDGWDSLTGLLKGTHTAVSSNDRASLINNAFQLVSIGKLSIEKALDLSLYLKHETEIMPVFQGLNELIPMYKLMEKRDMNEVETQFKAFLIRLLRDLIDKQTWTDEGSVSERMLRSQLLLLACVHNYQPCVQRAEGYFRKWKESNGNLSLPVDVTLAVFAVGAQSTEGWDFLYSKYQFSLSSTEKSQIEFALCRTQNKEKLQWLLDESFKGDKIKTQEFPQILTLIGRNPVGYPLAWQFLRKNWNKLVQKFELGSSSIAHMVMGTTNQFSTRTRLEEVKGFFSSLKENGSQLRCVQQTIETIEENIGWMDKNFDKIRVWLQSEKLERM
UniProt Q8IV48: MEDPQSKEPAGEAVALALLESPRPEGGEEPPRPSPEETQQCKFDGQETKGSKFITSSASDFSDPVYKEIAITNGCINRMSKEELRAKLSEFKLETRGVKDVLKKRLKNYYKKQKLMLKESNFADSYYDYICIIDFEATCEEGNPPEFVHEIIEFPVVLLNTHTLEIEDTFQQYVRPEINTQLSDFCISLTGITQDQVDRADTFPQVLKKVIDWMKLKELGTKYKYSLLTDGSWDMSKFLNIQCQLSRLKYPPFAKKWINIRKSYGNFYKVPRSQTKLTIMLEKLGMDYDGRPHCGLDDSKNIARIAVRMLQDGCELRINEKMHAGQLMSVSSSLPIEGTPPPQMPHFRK
UniProt Q9P2K8: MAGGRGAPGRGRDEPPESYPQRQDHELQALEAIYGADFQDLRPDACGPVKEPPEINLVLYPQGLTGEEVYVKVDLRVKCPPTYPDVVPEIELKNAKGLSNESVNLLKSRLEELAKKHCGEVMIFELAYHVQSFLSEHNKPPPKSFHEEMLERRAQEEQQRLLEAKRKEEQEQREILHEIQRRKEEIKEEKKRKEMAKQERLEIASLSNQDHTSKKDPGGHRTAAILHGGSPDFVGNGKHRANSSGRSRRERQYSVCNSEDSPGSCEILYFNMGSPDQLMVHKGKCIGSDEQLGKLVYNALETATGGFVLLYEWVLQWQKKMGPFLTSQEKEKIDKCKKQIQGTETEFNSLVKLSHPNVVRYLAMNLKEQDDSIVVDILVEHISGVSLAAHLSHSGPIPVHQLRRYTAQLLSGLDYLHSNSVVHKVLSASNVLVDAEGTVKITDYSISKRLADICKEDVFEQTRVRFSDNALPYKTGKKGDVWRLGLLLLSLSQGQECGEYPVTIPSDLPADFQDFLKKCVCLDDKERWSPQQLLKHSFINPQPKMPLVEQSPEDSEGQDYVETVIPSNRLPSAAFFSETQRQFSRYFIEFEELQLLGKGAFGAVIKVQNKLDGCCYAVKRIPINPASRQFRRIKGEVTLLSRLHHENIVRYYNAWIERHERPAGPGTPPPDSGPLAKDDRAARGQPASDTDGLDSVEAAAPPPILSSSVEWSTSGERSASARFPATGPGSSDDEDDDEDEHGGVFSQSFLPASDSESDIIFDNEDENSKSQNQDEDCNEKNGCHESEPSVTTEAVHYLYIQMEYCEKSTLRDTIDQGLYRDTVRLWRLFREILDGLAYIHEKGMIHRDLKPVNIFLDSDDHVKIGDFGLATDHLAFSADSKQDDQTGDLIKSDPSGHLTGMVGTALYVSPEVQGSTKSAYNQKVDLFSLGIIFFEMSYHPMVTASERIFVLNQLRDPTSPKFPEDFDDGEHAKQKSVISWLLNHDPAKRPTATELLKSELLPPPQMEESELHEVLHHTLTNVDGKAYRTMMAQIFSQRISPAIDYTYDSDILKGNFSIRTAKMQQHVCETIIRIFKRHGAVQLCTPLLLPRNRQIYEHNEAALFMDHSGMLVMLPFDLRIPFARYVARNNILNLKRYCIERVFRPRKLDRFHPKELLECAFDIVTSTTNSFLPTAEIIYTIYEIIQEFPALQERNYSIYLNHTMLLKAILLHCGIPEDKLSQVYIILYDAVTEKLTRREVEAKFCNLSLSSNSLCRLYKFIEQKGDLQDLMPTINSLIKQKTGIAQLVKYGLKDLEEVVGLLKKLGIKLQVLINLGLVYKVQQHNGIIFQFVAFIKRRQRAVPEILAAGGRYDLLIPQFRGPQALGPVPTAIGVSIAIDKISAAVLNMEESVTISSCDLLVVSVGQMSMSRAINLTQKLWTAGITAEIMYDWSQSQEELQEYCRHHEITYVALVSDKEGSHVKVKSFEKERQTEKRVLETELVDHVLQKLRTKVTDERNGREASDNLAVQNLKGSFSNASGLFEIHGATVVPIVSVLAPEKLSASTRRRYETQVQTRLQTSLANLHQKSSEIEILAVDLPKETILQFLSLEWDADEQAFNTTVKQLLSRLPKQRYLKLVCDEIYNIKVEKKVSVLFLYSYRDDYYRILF
UniProt Q9H9T3: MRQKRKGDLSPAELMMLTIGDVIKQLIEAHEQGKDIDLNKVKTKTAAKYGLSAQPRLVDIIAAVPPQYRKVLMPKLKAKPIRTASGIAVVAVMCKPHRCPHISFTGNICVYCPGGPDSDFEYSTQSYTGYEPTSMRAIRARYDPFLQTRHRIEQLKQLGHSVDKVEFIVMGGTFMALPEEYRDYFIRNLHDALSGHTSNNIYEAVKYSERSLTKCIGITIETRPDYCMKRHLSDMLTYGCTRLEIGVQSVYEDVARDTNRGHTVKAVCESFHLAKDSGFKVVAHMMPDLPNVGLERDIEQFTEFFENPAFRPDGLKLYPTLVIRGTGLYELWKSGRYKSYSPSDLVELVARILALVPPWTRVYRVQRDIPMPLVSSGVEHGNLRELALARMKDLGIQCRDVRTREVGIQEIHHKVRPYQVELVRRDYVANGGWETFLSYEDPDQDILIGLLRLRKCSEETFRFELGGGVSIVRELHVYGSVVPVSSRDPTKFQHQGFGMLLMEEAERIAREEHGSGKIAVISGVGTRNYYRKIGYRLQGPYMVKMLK
UniProt Q96EB1: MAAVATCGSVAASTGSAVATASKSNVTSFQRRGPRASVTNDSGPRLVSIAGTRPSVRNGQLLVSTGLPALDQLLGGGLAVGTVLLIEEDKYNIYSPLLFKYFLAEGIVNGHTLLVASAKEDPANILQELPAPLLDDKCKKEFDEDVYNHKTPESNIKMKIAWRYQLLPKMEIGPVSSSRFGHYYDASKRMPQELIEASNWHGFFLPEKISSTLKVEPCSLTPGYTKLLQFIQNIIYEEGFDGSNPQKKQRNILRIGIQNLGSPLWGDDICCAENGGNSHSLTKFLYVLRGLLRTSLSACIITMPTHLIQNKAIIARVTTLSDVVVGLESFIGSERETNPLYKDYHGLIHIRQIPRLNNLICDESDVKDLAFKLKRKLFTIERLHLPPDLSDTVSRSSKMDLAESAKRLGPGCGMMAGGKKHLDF
UniProt Q14240, whole entry, looked up: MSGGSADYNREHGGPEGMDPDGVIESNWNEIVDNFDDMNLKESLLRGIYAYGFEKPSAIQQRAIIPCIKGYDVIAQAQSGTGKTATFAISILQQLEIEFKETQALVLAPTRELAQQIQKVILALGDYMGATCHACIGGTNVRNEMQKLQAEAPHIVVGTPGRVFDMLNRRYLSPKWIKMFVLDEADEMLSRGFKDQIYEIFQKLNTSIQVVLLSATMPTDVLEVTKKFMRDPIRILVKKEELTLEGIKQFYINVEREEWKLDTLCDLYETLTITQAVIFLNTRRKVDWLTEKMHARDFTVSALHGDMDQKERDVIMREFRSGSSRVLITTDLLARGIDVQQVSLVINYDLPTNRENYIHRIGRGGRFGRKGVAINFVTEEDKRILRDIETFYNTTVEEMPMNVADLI
UniProt O75822, whole entry, looked up: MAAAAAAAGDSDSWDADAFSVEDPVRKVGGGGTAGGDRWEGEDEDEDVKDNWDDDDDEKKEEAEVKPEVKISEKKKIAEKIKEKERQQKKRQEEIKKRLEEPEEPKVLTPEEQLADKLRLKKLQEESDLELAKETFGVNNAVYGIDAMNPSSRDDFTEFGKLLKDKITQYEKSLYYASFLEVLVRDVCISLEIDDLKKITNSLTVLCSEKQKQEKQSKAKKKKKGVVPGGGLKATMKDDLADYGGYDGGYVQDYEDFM
UniProt P09104, whole entry, looked up: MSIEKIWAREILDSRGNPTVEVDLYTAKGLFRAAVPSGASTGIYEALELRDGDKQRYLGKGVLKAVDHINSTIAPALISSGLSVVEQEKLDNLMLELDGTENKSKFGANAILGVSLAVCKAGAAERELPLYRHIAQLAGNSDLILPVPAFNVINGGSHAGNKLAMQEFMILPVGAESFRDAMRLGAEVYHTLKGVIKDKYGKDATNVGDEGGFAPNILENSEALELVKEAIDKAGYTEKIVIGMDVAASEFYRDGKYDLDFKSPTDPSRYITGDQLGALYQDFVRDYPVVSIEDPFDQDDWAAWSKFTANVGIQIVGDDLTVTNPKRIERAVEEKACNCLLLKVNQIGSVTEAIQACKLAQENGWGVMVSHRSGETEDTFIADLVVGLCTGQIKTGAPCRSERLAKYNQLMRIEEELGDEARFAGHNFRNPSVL
UniProt P20042, whole entry, looked up: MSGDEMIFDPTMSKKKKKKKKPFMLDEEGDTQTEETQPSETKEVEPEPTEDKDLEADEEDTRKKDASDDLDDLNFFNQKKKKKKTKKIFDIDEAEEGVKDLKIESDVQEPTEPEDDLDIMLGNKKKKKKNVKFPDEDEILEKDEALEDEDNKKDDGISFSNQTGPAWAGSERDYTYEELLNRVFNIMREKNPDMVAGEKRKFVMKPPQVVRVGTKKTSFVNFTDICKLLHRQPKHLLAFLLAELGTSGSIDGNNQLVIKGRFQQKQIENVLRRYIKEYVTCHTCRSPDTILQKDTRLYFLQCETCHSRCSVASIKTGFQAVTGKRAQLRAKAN
UniProt Q9NR50: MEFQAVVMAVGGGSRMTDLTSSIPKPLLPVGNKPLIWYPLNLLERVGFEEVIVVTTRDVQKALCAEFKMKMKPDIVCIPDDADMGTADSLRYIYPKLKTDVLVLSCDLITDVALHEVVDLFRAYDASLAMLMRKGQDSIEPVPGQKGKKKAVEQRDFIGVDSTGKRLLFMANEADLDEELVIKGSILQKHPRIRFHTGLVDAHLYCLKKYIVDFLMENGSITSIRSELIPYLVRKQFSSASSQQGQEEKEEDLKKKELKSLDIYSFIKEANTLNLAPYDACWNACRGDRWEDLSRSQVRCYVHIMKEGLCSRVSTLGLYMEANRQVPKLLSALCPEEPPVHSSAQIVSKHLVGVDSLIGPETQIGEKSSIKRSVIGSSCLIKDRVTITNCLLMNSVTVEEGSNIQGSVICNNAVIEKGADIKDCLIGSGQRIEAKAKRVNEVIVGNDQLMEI

Tubastatin A = compound: CN1CCc2c(c3ccccc3n2Cc2ccc(C(=O)NO)cc2)C1 [Tubastatin A]
Summary of the method: as §1

[1] = compound: CNC(=O)C1=CC=CC=C1NC2=NC(=NC=C2Cl)NC3=C(C=C(C=C3)N4CCOCC4)OC
Summary of the method: as §1

defactinib = compound: CNC(=O)c1ccc(Nc2ncc(C(F)(F)F)c(NCc3nccnc3N(C)S(C)(=O)=O)n2)cc1 [defactinib]
Summary of the method: as §1

[2] = compound: CNc1nc(-c2ccc3c(N)n[nH]c3c2)cc(N2C[C@@H](C(=O)NC3CCCCC3)CC[C@H]2C)n1
Summary of the method: as §1

encorafenib = compound: COC(=O)N[C@@H](C)CNc1nccc(-c2cn(C(C)C)nc2-c2cc(Cl)cc(NS(C)(=O)=O)c2F)n1 [encorafenib]
Summary of the method: as §1

[3] = compound: COC(=O)[C@H](CCSC)NC(=O)C1=C(C=C(C=C1)NC[C@H](CS)N)C2=CC=CC=C2
Summary of the method: as §1

alisertib = compound: COc1cc(Nc2ncc3c(n2)-c2ccc(Cl)cc2C(c2c(F)cccc2OC)=NC3)ccc1C(=O)O [alisertib]
Summary of the method: as §1

[4] = compound: COc1cc2nc(-c3cc(F)ccc3O)nc(N[C@@H]3CNC[C@H]3C(C)(C)O)c2cc1OC
Summary of the method: as §1

gefitinib = compound: COc1cc2ncnc(Nc3ccc(F)c(Cl)c3)c2cc1OCCCN1CCOCC1 [gefitinib]
Summary of the method: as §1

lapatinib = compound: CS(=O)(=O)CCNCc1ccc(-c2ccc3ncnc(Nc4ccc(OCc5cccc(F)c5)c(Cl)c4)c3c2)o1 [lapatinib]
Summary of the method: as §1

pictilisib = compound: CS(=O)(=O)N1CCN(Cc2cc3nc(-c4cccc5[nH]ncc45)nc(N4CCOCC4)c3s2)CC1 [pictilisib]
Summary of the method: as §1

crizotinib = compound: C[C@@H](Oc1cc(-c2cnn(C3CCNCC3)c2)cnc1N)c1c(Cl)ccc(F)c1Cl [crizotinib]
Summary of the method: as §1

[5] = compound: C[C@H](C1=CC=C(C=C1)C(=O)NC2=C3C=CNC3=NC=C2)N
Summary of the method: as §1

duvelisib = compound: C[C@H](Nc1ncnc2nc[nH]c12)c1cc2cccc(Cl)c2c(=O)n1-c1ccccc1 [duvelisib]
Summary of the method: as §1

gandotinib = compound: Cc1cc(Nc2cc(CN3CCOCC3)c3nc(C)c(Cc4ccc(Cl)cc4F)n3n2)n[nH]1 [gandotinib]
Summary of the method: as §1

tozasertib = compound: Cc1cc(Nc2cc(N3CCN(C)CC3)nc(Sc3ccc(NC(=O)C4CC4)cc3)n2)n[nH]1 [tozasertib]
Summary of the method: as §1

doramapimod = compound: Cc1ccc(-n2nc(C(C)(C)C)cc2NC(=O)Nc2ccc(OCCN3CCOCC3)c3ccccc23)cc1 [doramapimod]
Summary of the method: as §1

bafetinib = compound: Cc1ccc(NC(=O)c2ccc(CN3CC[C@H](N(C)C)C3)c(C(F)(F)F)c2)cc1Nc1nccc(-c2cncnc2)n1 [bafetinib]
Summary of the method: as §1

[6] = compound: Cc1cccc(CC(=O)N2CCc3c2ccc(-c2cn(C)c4ncnc(N)c24)c3F)n1
Summary of the method: as §1

Row | Target | log2 fold change (alvocidib) | log2 fold change (Tubastatin A) | log2 fold change [1] | log2 fold change (defactinib) | log2 fold change [2] | log2 fold change (encorafenib) | log2 fold change [3] | log2 fold change (alisertib) | log2 fold change [4] | log2 fold change (gefitinib) | log2 fold change (lapatinib) | log2 fold change (pictilisib) | log2 fold change (crizotinib) | log2 fold change [5] | log2 fold change (duvelisib) | log2 fold change (gandotinib) | log2 fold change (tozasertib) | log2 fold change (doramapimod) | log2 fold change (bafetinib) | log2 fold change [6]
1 | EIF2B1 (UniProt Q14232) | inactive: -0.002 | inactive: -0.006 | inactive: 0.007 | inactive: -0.013 | inactive: -0.001 | inactive: -0.003 | inactive: -0.076 | inactive: -0.006 | inactive: -0.01 | inactive: -0.042 | inactive: 0 | inactive: -0.018 | inactive: 0.023 | inactive: 0.025 | inactive: 0.011 | inactive: 0.008 | inactive: -0.002 | inactive: -0.013 | inactive: 0.038 | inactive: -0.023
2 | EIF4E2 (UniProt O60573) | inactive: -0.051 | inactive: -0.182 | inactive: 0.037 | inactive: 0.025 | inactive: -0.028 | inactive: 0.104 | inactive: -0.014 | inactive: 0.055 | inactive: 0.025 | inactive: -0.05 | inactive: 0.008 | inactive: -0.009 | inactive: 0.073 | inactive: -0.032 | inactive: 0 | inactive: 0.107 | inactive: -0.038 | inactive: -0.225 | inactive: -0.019 | inactive: 0.097
3 | ERAP1 isoform 2 (UniProt Q9NZ08) | inactive: -0.015 | inactive: 0.041 | inactive: -0.013 | inactive: -0.002 | inactive: 0.03 | inactive: -0.007 | inactive: -0.002 | inactive: -0.016 | inactive: 0.019 | inactive: 0.002 | inactive: -0.009 | inactive: -0.005 | inactive: 0.002 | inactive: 0.01 | inactive: -0.007 | inactive: -0.001 | inactive: -0.012 | inactive: -0.011 | inactive: -0.003 | inactive: 0.004
4 | ERI1 (UniProt Q8IV48) | inactive: 0.008 | inactive: 0 | inactive: 0.026 | inactive: 0.004 | inactive: -0.021 | inactive: 0.025 | inactive: 0.118 | inactive: -0.015 | inactive: -0.02 | inactive: -0.007 | inactive: 0.037 | inactive: -0.079 | inactive: -0.017 | inactive: 0.047 | inactive: -0.022 | inactive: -0.123 | inactive: -0.015 | inactive: 0.015 | inactive: 0.04 | inactive: -0.051
5 | EP300 (UniProt Q09472) | inactive: -0.098 | inactive: 0.035 | inactive: -0.026 | inactive: 0.066 | inactive: 0.006 | inactive: 0.031 | inactive: 0.105 | inactive: -0.121 | inactive: -0.056 | inactive: -0.054 | inactive: 0.062 | inactive: -0.078 | inactive: 0.047 | inactive: -0.101 | inactive: -0.037 | inactive: -0.047 | inactive: 0.065 | inactive: -0.016 | inactive: 0.044 | inactive: 0.089
6 | EIF2AK4 (UniProt Q9P2K8) | inactive: -0.046 | inactive: -0.022 | inactive: -0.006 | inactive: 0.011 | inactive: 0.026 | inactive: -0.021 | inactive: 0.017 | inactive: -0.006 | inactive: -0.007 | inactive: 0.028 | inactive: -0.048 | inactive: -0.015 | inactive: 0.018 | inactive: -0.029 | inactive: -0.007 | inactive: 0.002 | inactive: 0.065 | inactive: -0.02 | inactive: -0.079 | inactive: 0.039
7 | ERCC2 (UniProt P18074) | inactive: 0.048 | inactive: -0.044 | inactive: -0.018 | inactive: 0.007 | inactive: -0.026 | inactive: 0.04 | inactive: 0.087 | inactive: 0.023 | inactive: -0.001 | inactive: -0.002 | inactive: 0.002 | inactive: -0.031 | inactive: -0.015 | inactive: 0.053 | inactive: -0.017 | inactive: -0.114 | inactive: -0.025 | inactive: 0.018 | inactive: -0.034 | inactive: -0.051
8 | ELP3 (UniProt Q9H9T3) | inactive: 0.013 | inactive: 0.004 | inactive: -0.011 | inactive: 0.002 | inactive: -0.006 | inactive: 0.025 | inactive: -0.066 | inactive: 0.012 | inactive: -0.002 | inactive: -0.001 | inactive: -0.007 | inactive: -0.036 | inactive: -0.006 | inactive: -0.01 | inactive: 0.012 | inactive: 0.008 | inactive: 0.002 | inactive: -0.006 | inactive: -0.002 | inactive: 0.005
9 | ELP4 (UniProt Q96EB1) | inactive: -0.029 | inactive: -0.022 | inactive: 0.022 | inactive: 0.032 | inactive: 0.072 | inactive: 0.033 | inactive: -0.03 | inactive: -0.003 | inactive: 0.002 | inactive: -0.006 | inactive: 0.014 | inactive: -0.041 | inactive: -0.033 | inactive: -0.012 | inactive: 0.011 | inactive: 0.036 | inactive: -0.002 | inactive: 0.025 | inactive: 0.008 | inactive: -0.005
10 | EIF4A2 isoform 2 (UniProt Q14240) | inactive: -0.025 | inactive: -0.033 | inactive: -0.005 | inactive: -0.018 | inactive: -0.019 | inactive: 0.012 | inactive: -0.004 | inactive: 0.001 | inactive: 0.009 | inactive: -0.03 | inactive: -0.012 | inactive: -0.008 | inactive: -0.001 | inactive: -0.062 | inactive: 0.004 | inactive: 0.024 | inactive: -0.004 | inactive: 0.013 | inactive: 0.013 | inactive: 0.035
11 | EIF3J (UniProt O75822) | inactive: -0.017 | inactive: 0.058 | inactive: 0.003 | inactive: -0.071 | inactive: 0.055 | inactive: -0.021 | inactive: -0.014 | inactive: -0.001 | inactive: 0.016 | inactive: -0.032 | inactive: -0.002 | inactive: 0.024 | inactive: 0.027 | inactive: -0.03 | inactive: 0.044 | inactive: 0.007 | inactive: 0.006 | inactive: 0.019 | inactive: -0.009 | inactive: -0.012
12 | ENO2 (UniProt P09104) | active: -0.279 | inactive: 0.024 | inactive: -0.018 | inactive: -0.007 | inactive: 0.073 | inactive: 0.032 | inactive: 0.086 | inactive: -0.025 | inactive: -0.014 | inactive: -0.021 | inactive: 0.01 | inactive: 0.012 | inactive: -0.009 | active: -0.358 | inactive: 0.04 | inactive: 0.214 | inactive: -0.111 | inactive: -0.012 | inactive: -0.014 | active: 0.264
13 | EIF2S2 (UniProt P20042) | inactive: -0.011 | inactive: 0.058 | inactive: -0.001 | inactive: -0.038 | inactive: 0.013 | inactive: -0.027 | inactive: -0.045 | inactive: -0.001 | inactive: 0.006 | inactive: -0.016 | inactive: 0.004 | inactive: 0.017 | inactive: -0.003 | inactive: 0.085 | inactive: 0.024 | inactive: -0.075 | inactive: 0.006 | inactive: -0.007 | inactive: -0.002 | inactive: 0
14 | EIF2B3 (UniProt Q9NR50) | inactive: 0.071 | inactive: -0.103 | inactive: -0.009 | inactive: 0.008 | inactive: -0.012 | inactive: -0.007 | inactive: 0.057 | inactive: -0.016 | inactive: -0.007 | inactive: -0.041 | inactive: -0.007 | inactive: -0.021 | inactive: -0.061 | active: 0.234 | inactive: 0.016 | inactive: -0.115 | inactive: -0.035 | inactive: 0.012 | inactive: -0.024 | inactive: -0.047
15 | EIF5B (UniProt O60841) | inactive: 0.003 | inactive: 0.007 | inactive: -0.017 | inactive: -0.017 | inactive: -0.001 | inactive: -0.016 | inactive: 0.031 | inactive: -0.003 | inactive: 0.004 | inactive: -0.027 | inactive: -0.011 | inactive: -0.013 | inactive: 0.015 | inactive: -0.007 | inactive: -0.003 | inactive: -0.007 | inactive: 0 | inactive: -0.028 | inactive: 0.068 | inactive: 0.007
16 | ERCC3 (UniProt P19447) | inactive: 0.03 | inactive: -0.048 | inactive: 0.006 | inactive: 0.013 | inactive: -0.013 | inactive: 0.011 | inactive: 0.033 | inactive: -0.057 | inactive: 0.021 | inactive: 0.039 | inactive: 0.035 | inactive: -0.016 | inactive: -0.089 | inactive: -0.002 | inactive: -0.032 | inactive: -0.116 | inactive: 0 | inactive: 0.039 | inactive: -0.105 | inactive: 0.039

Shown with tabs: part of the list above
Row	Target	log2 fold change (alvocidib)	log2 fold change (Tubastatin A)	log2 fold change [1]	log2 fold change (defactinib)	log2 fold change [2]	log2 fold change (encorafenib)	log2 fold change [3]	log2 fold change (alisertib)	log2 fold change [4]	log2 fold change (gefitinib)	log2 fold change (lapatinib)	log2 fold change (pictilisib)	log2 fold change (crizotinib)	log2 fold change [5]	log2 fold change (duvelisib)	log2 fold change (gandotinib)	log2 fold change (tozasertib)	log2 fold change (doramapimod)	log2 fold change (bafetinib)	log2 fold change [6]
2	EIF4E2 (UniProt O60573)	inactive: -0.051	inactive: -0.182	inactive: 0.037	inactive: 0.025	inactive: -0.028	inactive: 0.104	inactive: -0.014	inactive: 0.055	inactive: 0.025	inactive: -0.05	inactive: 0.008	inactive: -0.009	inactive: 0.073	inactive: -0.032	inactive: 0	inactive: 0.107	inactive: -0.038	inactive: -0.225	inactive: -0.019	inactive: 0.097
3	ERAP1 isoform 2 (UniProt Q9NZ08)	inactive: -0.015	inactive: 0.041	inactive: -0.013	inactive: -0.002	inactive: 0.03	inactive: -0.007	inactive: -0.002	inactive: -0.016	inactive: 0.019	inactive: 0.002	inactive: -0.009	inactive: -0.005	inactive: 0.002	inactive: 0.01	inactive: -0.007	inactive: -0.001	inactive: -0.012	inactive: -0.011	inactive: -0.003	inactive: 0.004
